Experimental data published in PubChem BioAssay AID2417 (National Center for Advancing Translational Sciences (NCATS), 2010).
Among all 140,000 compounds or so, about 4,300 (3.1%) were called active. The inconclusive results got no clear call from the source; some entries with a clear call stand among them for comparison.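 Rule for the calls: active = readout at or below -70, meaning at least 70% loss of cells showing the perinucleolar compartment, a nuclear body marking cancer cells; inconclusive = readout between -30 and a set limit; inactive = the rest.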

Assay: High Content Assay for Compounds that inhibit the Assembly of the Perinucleolar Compartment;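 note: plate controls were DMSO wells for no effect and camptothecin positive control wells for full effect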
Details: PC3M PTB-GFP, PNC prevalence imaging, 16 h; at 10 µM; hits give low values
In short: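 Compounds are pinned in duplicate onto adhered PC3M cells stably expressing GFP-tagged PTB and incubated 16 h at 37 C. Cells are then fixed, nuclei stained with Hoechst, and PNC-positive cells counted.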
With CCn1cc([N+](=O)[O-])c(C(=O)N2N=C(c3ccc4ccccc4c3)CC2c2cc(Br)ccc2O)n1 (stereo not drawn) the activity change (PNC), negative = inhibition was inconclusive: -33.4%. With CCCCOC(=O)CNc1n[nH]c(=S)[nH]c1=O the activity change (PNC), negative = inhibition was inconclusive: -31.4%. For CCCCN(CC)CCCNC(=O)C1c2ccccc2C(=O)N(C)C1c1cn(C)c2ccccc12 (stereo not drawn), the activity change (PNC), negative = inhibition was inactive: -6.91%. With Cc1ccc(C(=O)N(c2ccccc2)C2CC(C)N(C(=O)c3ccco3)c3ccccc32)cc1 (stereo not drawn) the activity change (PNC), negative = inhibition was inconclusive: -30.9%. For CC(C)(C)C(=O)N1CCC[C@@]1(CO)C(=O)O, the activity change (PNC), negative = inhibition was inconclusive: -59.2%. For CCN1CCN(C(=O)CN(C)S(=O)(=O)c2ccc(OC)cc2)CC1, the activity change (PNC), negative = inhibition was inconclusive: -30.7%. With Cc1cc(C)c(C#N)c(SCC(=O)N(C)C2CCCCC2)n1 the activity change (PNC), negative = inhibition was inconclusive: -38.8%. For CCOC(=O)c1c(C)oc2c1c(C(c1ccccc1)N1CCOCC1)c(O)c1ccccc12 (stereo not drawn), the activity change (PNC), negative = inhibition was inactive: 41.8%. With CCn1c(=NC(=O)CN2C(=O)CCC2=O)sc2c(C)cc(C)cc21 the activity change (PNC), negative = inhibition was inactive: 24%. In the case of Cc1sc2nc(-c3cccs3)nc(N3CCCN(C)CC3)c2c1C, the activity change (PNC), negative = inhibition is reported as inconclusive: -39.3%. In the case of O=C(NCc1ccccc1)c1cc(=O)nc2sc(-c3ccccc3)nn12, the activity change (PNC), negative = inhibition is reported as inconclusive: -34.3%. In the case of Cc1nc(=O)cc(-c2ccccc2)n1-c1ccccc1, the activity change (PNC), negative = inhibition is reported as active: -108%. With CCn1c(=O)cc(SCC(=O)NCc2ccc(C)cc2)c2ccccc21 the activity change (PNC), negative = inhibition was inactive: 25.5%. With Cc1ccccc1OCC(=O)N/N=C/c1ccc2c(c1)OCCO2 the activity change (PNC), negative = inhibition was inconclusive: -52.5%. In the case of Cc1ccc(-c2cc3nc(C)cc(NCc4ccco4)n3n2)cc1, the activity change (PNC), negative = inhibition is reported as active: -104%. In the case of O=C1C(NS(=O)(=O)c2ccc(Cl)cc2)=C(N2CCCCC2)C(=O)c2ccccc21, the activity change (PNC), negative = inhibition is reported as inconclusive: -31.6%. With Brc1cccc(/C=N\n2cnnc2)c1 the activity change (PNC), negative = inhibition was inconclusive: -52.5%. With C/C(=N\NC(=O)c1ccc([N+](=O)[O-])cc1)c1cc2ccccc2oc1=O the activity change (PNC), negative = inhibition was inactive: -24.4%. With Cc1ccc(OCC(=O)NC(=S)Nc2cccc(NC(=O)c3ccccc3)c2)cc1 the activity change (PNC), negative = inhibition was inconclusive: -46.7%. With CS(=O)(=O)N(Cc1ccc(Cl)cc1)c1ccc(C(=O)NCCSc2ccccn2)cc1 the activity change (PNC), negative = inhibition was inconclusive: -38.2%. For CCCNC(=O)CS(=O)Cc1nc(-c2ccccc2C)oc1C (stereo not drawn), the activity change (PNC), negative = inhibition was inconclusive: -40.3%. With CCn1cnc2cc(NC(=O)c3ccco3)ccc21 the activity change (PNC), negative = inhibition was inconclusive: -41.4%. For COC(=O)Cn1nc(-c2ccccc2)c2cc(Cl)ccc21, the activity change (PNC), negative = inhibition was inconclusive: -30.4%. In the case of CCN(CC)C(=O)CSc1nnc(CCCCCNC(=O)OC(C)(C)C)o1, the activity change (PNC), negative = inhibition is reported as inactive: -24.1%. For Oc1c(C(Nc2ccccn2)c2cccnc2)cc(Cl)c2cccnc12 (stereo not drawn), the activity change (PNC), negative = inhibition was inactive: -17.5%. For COc1ccc(-c2cc(=O)c3ccccc3n2C)cc1, the activity change (PNC), negative = inhibition was inactive: -14.3%. In the case of CCOCCOC(=O)C1=C(C)N(C)C(=O)NC1c1cc(Cl)c(O)c(OC)c1 (stereo not drawn), the activity change (PNC), negative = inhibition is reported as inconclusive: -63.5%. With Cc1c(C(=O)Nc2ccc(-c3nnc4n3CCCCC4)cc2)oc2ccc(Br)cc12 the activity change (PNC), negative = inhibition was inactive: -14.3%. With O=C(NC(=S)Nc1ccc(S(=O)(=O)N2CCCCCC2)cc1)c1cccs1 the activity change (PNC), negative = inhibition was inconclusive: -35.9%. With O=C(COC(=O)c1ccc([N+](=O)[O-])s1)Nc1ccccc1 the activity change (PNC), negative = inhibition was inconclusive: -30.4%. With CC(=O)N1CCN(c2ccc(OC[C@H]3CO[C@](Cn4ccnc4)(c4ccc(Cl)cc4Cl)O3)cc2)CC1 the activity change (PNC), negative = inhibition was inconclusive: -42.7%. For CCNc1nc(CN2CCOCC2)nc2sc3c(c12)CCC3, the activity change (PNC), negative = inhibition was inactive: 30.5%. In the case of Fc1ccc(C2=CC(c3ccc(Br)o3)n3ncnc3N2)cc1 (stereo not drawn), the activity change (PNC), negative = inhibition is reported as inconclusive: -62.4%. In the case of Cc1cn(C2OC(COC(=O)c3ccccc3)C(O)C2O)c(=O)[nH]c1=O (stereo not drawn), the activity change (PNC), negative = inhibition is reported as active: -88.6%. With COc1ccc(/C=C(/NC(=O)/C=C/c2ccccc2)C(=O)N2CCOCC2)cc1 the activity change (PNC), negative = inhibition was inconclusive: -57.7%. With COc1ccc(C)cc1NC(=O)CN1CCN(S(=O)(=O)c2ccc(Br)cc2)CC1 the activity change (PNC), negative = inhibition was inactive: -27.9%. With CC(C)(C)C(=O)CN1CCN(S(=O)(=O)c2ccc(F)cc2)CC1 the activity change (PNC), negative = inhibition was inconclusive: -56.7%. In the case of COc1ccc2c(CC(=O)Nc3ccc(OC)c(NS(=O)(=O)c4ccc(F)cc4)c3)coc2c1, the activity change (PNC), negative = inhibition is reported as active: -127%. For COc1ccc(C(=O)N/C(=C/c2cccc3ccccc23)C(=O)NCCc2c[nH]c3ccccc23)cc1OC, the activity change (PNC), negative = inhibition was inconclusive: -32.2%. For Cc1nc2ccccc2c(-c2ccccc2)c1CC(=O)O, the activity change (PNC), negative = inhibition was inactive: -10.2%. With O=C(NC1CCCCC1)c1ccc(N2CCCC2=O)cc1 the activity change (PNC), negative = inhibition was inactive: -27.6%. With CC1(c2cccs2)CC(c2cccs2)=C(C#N)C(=O)N1 (stereo not drawn) the activity change (PNC), negative = inhibition was inconclusive: -38.1%. For CCC(=O)NNc1cccc(Cl)n1, the activity change (PNC), negative = inhibition was inconclusive: -44.1%. With COc1ccc(N2CCN(Cc3nc(N)nc(N4CCCc5ccccc54)n3)CC2)cc1 the activity change (PNC), negative = inhibition was inconclusive: -62.1%. In the case of OCC#CCSc1nnc(-c2ccncc2)o1, the activity change (PNC), negative = inhibition is reported as inconclusive: -33.1%. In the case of O=C(NCc1ccco1)C(=O)NCc1ccccc1Cl, the activity change (PNC), negative = inhibition is reported as inactive: 85.6%. In the case of Nc1nnc(Cc2ccc(Cl)cc2)s1, the activity change (PNC), negative = inhibition is reported as inconclusive: -54.2%. In the case of O=C(c1ccc2c(=O)n(Cc3ccco3)c(=S)[nH]c2c1)N1CCN(Cc2ccccc2)CC1, the activity change (PNC), negative = inhibition is reported as inconclusive: -51.7%. With CCOC(=O)c1cc2c(=O)n3cc(C)ccc3nc2n(Cc2cccnc2)c1=N the activity change (PNC), negative = inhibition was inconclusive: -45.5%. In the case of N#CC1=C(SCC(=O)Nc2ccccc2)NC(=O)CC1c1ccc(O)cc1 (stereo not drawn), the activity change (PNC), negative = inhibition is reported as inactive: 4.19%. With CC(C)CC(=O)NCCCN1CCN(CCCNC(=O)CC(C)C)CC1 the activity change (PNC), negative = inhibition was inconclusive: -60.5%. With Cc1cc(C)n2nc(SCc3nnc(SCCCCl)o3)nc2n1 the activity change (PNC), negative = inhibition was inactive: 2.78%. For O=C(COC(=O)Cc1ccsc1)NCc1ccccc1, the activity change (PNC), negative = inhibition was inactive: 30.8%. With Cc1ccc(/C=N/NC(=O)c2ccc(Br)o2)s1 the activity change (PNC), negative = inhibition was active: -97.9%. For CC(=O)c1ccc(NC(=O)C2CCCN2S(=O)(=O)c2ccc(F)cc2)cc1 (stereo not drawn), the activity change (PNC), negative = inhibition was inconclusive: -34.7%. For CC(C)(C)c1cc(N)on1, the activity change (PNC), negative = inhibition was inactive: 3.03%. With O=C(CSc1nnc(-c2cccnc2)n1CCc1ccccc1)N1CCCCC1 the activity change (PNC), negative = inhibition was inactive: -0.0988%. For CC(C)C(c1nnnn1C1CCCCC1)N1CCc2ccccc21 (stereo not drawn), the activity change (PNC), negative = inhibition was inconclusive: -43.1%.
